Experimental data: article PMC10920845
These are yes or no findings as the source states them, for the method shown. Binding seen in cells or lysates may run through a third protein. Some binding calls cover weakened binding; strength is not graded here.

By UniProt entry, the sequences of proteins in these tests, tags left out.
UniProt O35129: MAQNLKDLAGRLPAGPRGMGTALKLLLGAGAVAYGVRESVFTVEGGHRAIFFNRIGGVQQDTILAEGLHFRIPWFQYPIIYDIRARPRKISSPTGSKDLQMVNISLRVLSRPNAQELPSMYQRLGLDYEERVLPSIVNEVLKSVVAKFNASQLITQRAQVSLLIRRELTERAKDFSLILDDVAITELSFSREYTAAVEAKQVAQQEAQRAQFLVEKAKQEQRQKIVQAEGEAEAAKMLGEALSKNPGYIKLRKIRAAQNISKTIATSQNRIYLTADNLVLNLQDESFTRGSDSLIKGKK
UniProt P52480: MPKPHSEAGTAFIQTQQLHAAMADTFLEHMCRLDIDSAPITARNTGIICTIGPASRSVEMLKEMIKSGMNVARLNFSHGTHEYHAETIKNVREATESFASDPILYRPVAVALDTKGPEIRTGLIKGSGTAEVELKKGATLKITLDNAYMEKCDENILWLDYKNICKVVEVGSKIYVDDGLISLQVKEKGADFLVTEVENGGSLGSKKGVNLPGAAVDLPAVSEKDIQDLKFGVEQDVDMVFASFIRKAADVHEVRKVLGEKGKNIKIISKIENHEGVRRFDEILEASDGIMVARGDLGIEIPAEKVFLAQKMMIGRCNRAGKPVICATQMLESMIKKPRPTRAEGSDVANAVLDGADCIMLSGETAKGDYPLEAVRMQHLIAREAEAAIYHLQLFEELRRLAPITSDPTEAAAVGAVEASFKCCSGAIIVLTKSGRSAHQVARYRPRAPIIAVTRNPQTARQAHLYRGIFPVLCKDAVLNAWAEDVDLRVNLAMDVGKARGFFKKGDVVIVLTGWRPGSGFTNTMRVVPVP

What was measured:
[1] = molecular target: Prohibitin 2 (PHB2) (mouse (endogenous in HL-1 and N2a)) (UniProt O35129); experiment: co-IP; HL-1 cell lysate; cells treated with MG132 for six hours; lysis in 20 mM Tris-HCl pH 7.5, 150 mM NaCl, 10% glycerol, 1% Triton X-100; primary antibody overnight, IgG magnetic beads 2 h at 4°C; with and without LPS treatment of the cells; bait not stated
[2] = molecular target: Prohibitin 2 (PHB2) (mouse (endogenous in HL-1 and N2a)) (UniProt O35129); experiment: co-IP; N2a cell lysate; cells treated with MG132 for six hours; lysis in 20 mM Tris-HCl pH 7.5, 150 mM NaCl, 10% glycerol, 1% Triton X-100; primary antibody overnight, IgG magnetic beads 2 h at 4°C; with and without LPS treatment of the cells; bait not stated

“Pyruvate Kinase M2 (PKM2) (from UniProt P52480 1-531) (enzyme)” was tested, and the binding [1] was “binds” and the binding [2] was “binds”.
